Assay results published in paper PMC7075923.

Tests used:
[1] = target: T1, p7A-Nt[GFP] (Melon necrotic spot virus) (UniProt Q8V993); test: split reporter; BiFC with GFP fragments 1-155 and 156-238; co-expression by agroinfiltration in N. benthamiana leaves; epidermal cells viewed by confocal microscopy three days after agroinfiltration
T1 sequence: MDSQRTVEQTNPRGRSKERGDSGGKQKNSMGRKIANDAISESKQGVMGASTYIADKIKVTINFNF

[2] = target: T2, Nt[GFP]-p7A (Melon necrotic spot virus) (UniProt Q8V993); test: as above
T2 sequence: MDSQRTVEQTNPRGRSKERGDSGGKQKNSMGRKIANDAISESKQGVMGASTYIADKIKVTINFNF

[3] = target: T3, MNSV p7A (DGBp1 of Melon necrotic spot virus), Gal4 fusion (Melon necrotic spot virus) (UniProt Q8V993); test: two-hybrid; GAL4 […] system, yeast AH109; DGBp1s and their fnf mutants as Gal4-BD fusions against full-length Arabidopsis ORFs as Gal4-AD fusions; controls pBD-p53 and pAC-ILR3; growth on SD + DO-A-H-L-W + X-alpha Gal
T3 sequence: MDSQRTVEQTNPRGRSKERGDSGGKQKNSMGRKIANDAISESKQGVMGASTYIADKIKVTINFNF

[4] = target: T4, p7A-Ct[GFP] (Melon necrotic spot virus) (UniProt Q8V993); test: split reporter; BiFC with GFP fragments 1-155 and 156-238; co-expression by agroinfiltration in N. benthamiana leaves; epidermal cells viewed by confocal microscopy three days after agroinfiltration
T4 sequence: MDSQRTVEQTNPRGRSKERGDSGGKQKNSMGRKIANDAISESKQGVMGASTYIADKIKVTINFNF

[5] = target: T5, Ct[GFP]-p7A (Melon necrotic spot virus) (UniProt Q8V993); test: as above
T5 sequence: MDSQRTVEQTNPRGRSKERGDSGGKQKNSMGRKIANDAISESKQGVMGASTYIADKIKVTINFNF

[6] = target: T6, p7A^Nt (MNSV p7A lacking residues 1 to 22), Gal4-BD fusion (Melon necrotic spot virus) (UniProt Q8V993); test: two-hybrid; GAL4 […] system, yeast AH109; DGBp1 or p7A mutants as Gal4-BD fusions (pGBKT7) against pAC-p7A or pAC-p7 (pACT2); growth on SD + DO-A-H-L-W + X-alpha Gal (HIS3, ADE2, MEL1 reporters)
T6 sequence: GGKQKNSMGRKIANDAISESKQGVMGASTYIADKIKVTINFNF

[7] = target: T3, MNSV p7A (DGBp1 of Melon necrotic spot virus), Gal4 fusion (Melon necrotic spot virus); test: as above
[8] = target: T7, p7A^Ct (MNSV p7A lacking residues 45 to 65), Gal4-BD fusion (Melon necrotic spot virus) (UniProt Q8V993); test: as above
T7 sequence: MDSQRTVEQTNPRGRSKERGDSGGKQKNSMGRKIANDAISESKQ

[9] = target: TCV p8 (DGBp1 of Turnip crinkle virus), Gal4-BD fusion (Turnip crinkle virus); test: two-hybrid; GAL4 […] system, yeast AH109; DGBp1s and their fnf mutants as Gal4-BD fusions against full-length Arabidopsis ORFs as Gal4-AD fusions; controls pBD-p53 and pAC-ILR3; growth on SD + DO-A-H-L-W + X-alpha Gal
[10] = target: CarMV p7 (DGBp1 of Carnation mottle virus), Gal4 fusion (Carnation mottle virus); test: as above
[11] = target: Nt[GFP]-p7 (Carnation mottle virus); test: split reporter; BiFC with GFP fragments 1-155 and 156-238; co-expression by agroinfiltration in N. benthamiana leaves; epidermal cells viewed by confocal microscopy three days after agroinfiltration
[12] = target: p7-Nt[GFP] (Carnation mottle virus); test: as above
[13] = target: p8-Nt[GFP] (Turnip crinkle virus); test: as above
[14] = target: Nt[GFP]-p8 (Turnip crinkle virus); test: as above
[15] = target: Ct[GFP]-p7 (Carnation mottle virus); test: as above
[16] = target: p8-Ct[GFP] (Turnip crinkle virus); test: as above
[17] = target: Ct[GFP]-p8 (Turnip crinkle virus); test: as above
[18] = target: p7-Ct[GFP] (Carnation mottle virus); test: as above

## eIF3g1 fused to Ct[GFP] (Arabidopsis)
[1]
  binding: no binding
[2]
  binding: binds

## subunit G of the eukaryotic translation initiation factor 3 (eIF3g1), Gal4-AD fusion (Arabidopsis)
[3]
  binding: binds

## eIF3g1-Nt[GFP] (Arabidopsis)
[4]
  binding: no binding
[5]
  binding: binds

## eIF3g2, Gal4 fusion (Arabidopsis)
[3]
  binding: no binding

## CarMV p7 (DGBp1 of Carnation mottle virus), Gal4 fusion
[6]
  binding: binds
[7]
  binding: binds
[8]
  binding: no binding

B1: RPP3B, Gal4 fusion (protein, UniProt Q9LVC9 1-120)
chain: MGVFSFVCKSKGGEWTAKQHEGDLEASASSTYDLQRKLVQTALSADSSGGVQSSFSLVSPTSAVFVVVIGGGGGGGFAAGGGAAAGGGGGGEAAAATKEEEKKKEESEEEEGDFGFDLFG
[9]
  binding: no binding
[10]
  binding: no binding

B2: 60 S acidic ribosomal protein P3 (RPP3A), Gal4-AD fusion (protein, UniProt Q9SVZ6 1-119)
chain: MGVFTFVCKNGGGAWSAKQHEGELESSASSTYELQRKLVQVSLSADSSGGVQSSFSLVSPTSAVFQVIVGGGGGGGFSAGGAASSGGGAGEAAAAPKEDEKKKEESEEEEGDFGFDLFG
[9]
  binding: binds
[10]
  binding: binds

B3: RPP3A fused to Ct[GFP] (protein, UniProt Q9SVZ6 1-119)
chain: MGVFTFVCKNGGGAWSAKQHEGELESSASSTYELQRKLVQVSLSADSSGGVQSSFSLVSPTSAVFQVIVGGGGGGGFSAGGAASSGGGAGEAAAAPKEDEKKKEESEEEEGDFGFDLFG
[11]
  binding: binds
[12]
  binding: no binding
[13]
  binding: no binding
[14]
  binding: binds

B4: RPP3A-Nt[GFP] (protein, UniProt Q9SVZ6 1-119)
chain: MGVFTFVCKNGGGAWSAKQHEGELESSASSTYELQRKLVQVSLSADSSGGVQSSFSLVSPTSAVFQVIVGGGGGGGFSAGGAASSGGGAGEAAAAPKEDEKKKEESEEEEGDFGFDLFG
[15]
  binding: binds
[16]
  binding: no binding
[17]
  binding: binds
[18]
  binding: no binding

No constants are given. Whether binding was seen depends on the method and setting. For part of these data: A result given as binding can be weak or reduced; the word gives no strength. Where a sequence is shown, tags or fusion partners need not be part of it. For part of these data: In cells and extracts the contact can be indirect.
